According to PubChem BioAssay AID2284369 (EPA ToxCast):
Inconclusive means that the source gave no clear call. Such entries were picked first, then a sample of the others. A potency beside an inconclusive call is a rough fit, not a confirmed value. Calls of active or inactive are those of the source. How the source made its calls: active means hit-call score of the fitted dose curve at least 0.9, where 1 is the maximum; inconclusive means response in the unintended direction; inactive means score below 0.9.

Test system: frog Estrogen Receptor (ER1), gene 398734
Experiment: ATG_frER1_EcoTox2: Attagene TRANS-FACTORIAL EcoTox-2 HepG2 Assay for frog Estrogen Receptor (ER1)
Description: ATG_EcoTox2 is a cell-based, multiplexed assay created by modifying the existing Attagene TRANS-FACTORIAL system to include a panel of nuclear receptors from some or all the following species: human (Homo sapiens), african clawed frog (Xenopus laevis), rainbow trout (Oncorhynchus mykiss), japanese medaka (Oryzias latipes), and zebrafish (Danio rerio). The ECOTOX2-FACTORIAL format uses HepG2, a human liver cell line, with measurements taken at 24 hours after chemical dosing in a 24-well plate. ATG_frER1_EcoTox2 is one of 29 assay components calculated in the ATG_EcoTox2 assay. It is designed to make measurements of mRNA induction, a form of inducible reporter, as detected with fluorescence intensity signals by Reverse transcription polymerase chain reaction (RT-PCR) and Capillary electrophoresis technology.The assay endpoint ATG_frER1_EcoTox2 was analyzed in the positive analysis fitting direction relative to DMSO as the negative control and baseline of activity. Using a type of inducible reporter, measures of mRNA for gain-of-signal activity can be used to understand the reporter gene at the transcription factor-level as they relate to the gene ER. Furthermore, this assay endpoint can be referred to as a primary readout, because this assay has produced multiple assay endpoints where this one serves a reporter gene function. To generalize the intended target to other relatable targets, this assay endpoint is annotated to the nuclear receptor intended target family, where the subfamily is steroidal.
Human liver HepG2 cells are transiently transfected with multiple reporter transcription units (MRTUs) in 6-well plates using FuGene 6 reagent (Roche; 3 ml FuGene/1 mg DNA). The MRTU constructs are regulated by a cis-regulating element (promoter). Each RTU expresses a GAL4-UAS that regulates the transcription of a nearby target reporter gene sequence. A major difference between the CIS and TRANS system is that in CIS activities of endogenous TFs are measured, whereas the TRANS assay evaluates changes in activities of exogenous, chimeric NR-Gal4 proteins. […] At the end of 24 hour incubation, total RNA was isolated using TriZol reagent (Invitrogen). The isolated RNA is then reverse-transcribed using oligo(dT) primer and Mo-MLV reverse transcriptase (Invitrogen) with DNAse I (Ambion) treatment for 30 min. The one-tenth of the produced cDNA was amplified by PCR using Taq DNA polymerase (Invitrogen) and two reporter sequence-specific primers. […] The fragments were purified using Qiaquick PCR columns (Qiagen), analyzed on an ABI 3130xL genetic analyzer (Applied Biosystems) with peak positions identified by using a set of X-rhodamine (ROX)-labeled MapMarker1000 molecular weight standards (BioVentures). […]

Structure (SMILES) | AC50 | outcome
CC(C)(Oc1ccc(C2CC2(Cl)Cl)cc1)C(=O)O (centres undefined) | inconclusive: 100 µM | 
C[C@]12C=CC(=O)C=C1CC[C@@H]1[C@@H]2C(=O)C[C@@]2(C)[C@H]1CC[C@]2(O)C(=O)CO | active: 50 µM | 
Cc1nc(-c2ccc(C(F)(F)F)cc2)sc1C(=O)NCc1ccc(OC(C)(C)C(=O)O)cc1 | inconclusive: 0.0823 µM | 
CN(CCOc1ccc(CC2SC(=O)NC2=O)cc1)c1ccccn1 (centres undefined) |  | inactive
